Test results: article PMC9626503
Results are given in words; binding and its absence hold for the method and conditions named. In cells and extracts the contact can be indirect. Here binding means that the protein was enriched with, or labelled near, the bait; the list need not be complete. Tags and fused reporters may be left off the sequences shown.

Chains of the proteins cited; added tags and fusions are not shown.
UniProt Q15291: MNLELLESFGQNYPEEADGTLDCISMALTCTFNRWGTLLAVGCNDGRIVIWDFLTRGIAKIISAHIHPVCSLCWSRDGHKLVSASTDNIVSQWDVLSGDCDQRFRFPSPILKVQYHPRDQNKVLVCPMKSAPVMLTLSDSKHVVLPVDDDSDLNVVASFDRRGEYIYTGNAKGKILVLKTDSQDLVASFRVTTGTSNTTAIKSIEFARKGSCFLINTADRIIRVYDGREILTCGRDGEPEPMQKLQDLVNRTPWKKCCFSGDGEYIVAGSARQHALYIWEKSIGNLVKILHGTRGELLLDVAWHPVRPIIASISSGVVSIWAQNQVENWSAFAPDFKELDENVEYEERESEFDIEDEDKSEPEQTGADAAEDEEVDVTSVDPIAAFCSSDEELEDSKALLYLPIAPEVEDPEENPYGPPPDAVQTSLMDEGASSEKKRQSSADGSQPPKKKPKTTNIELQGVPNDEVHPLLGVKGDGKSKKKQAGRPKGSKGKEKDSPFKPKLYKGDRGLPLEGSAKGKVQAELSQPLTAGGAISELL
UniProt Q9C005: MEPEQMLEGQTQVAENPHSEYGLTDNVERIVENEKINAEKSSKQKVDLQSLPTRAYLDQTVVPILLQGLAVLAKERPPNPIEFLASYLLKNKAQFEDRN

Target: T1, FOXQ1 with C-terminal TAP-tag (pcDNA3.1-FOXQ1-(C)-STAP) (human) (UniProt Q9C009)
T1 sequence: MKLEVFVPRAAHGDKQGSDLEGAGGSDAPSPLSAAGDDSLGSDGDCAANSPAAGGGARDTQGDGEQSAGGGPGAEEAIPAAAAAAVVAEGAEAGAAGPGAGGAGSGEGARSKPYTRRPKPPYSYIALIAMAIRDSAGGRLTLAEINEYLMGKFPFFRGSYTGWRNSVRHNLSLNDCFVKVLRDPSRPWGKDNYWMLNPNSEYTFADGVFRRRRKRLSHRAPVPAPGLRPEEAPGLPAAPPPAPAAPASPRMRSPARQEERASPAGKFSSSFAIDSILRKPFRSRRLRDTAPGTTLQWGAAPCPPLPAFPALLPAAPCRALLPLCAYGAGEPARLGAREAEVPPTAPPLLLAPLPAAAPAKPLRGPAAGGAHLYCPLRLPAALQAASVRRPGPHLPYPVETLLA
Assay: affinity purification with mass spectrometry; tandem affinity purification (IgG beads, TEV cleavage, streptavidin beads) of C-terminally TAP-tagged FOXQ1 from transfected HEK293T cells; LacZ TAP-tag control; duplicate

| binding | Substance |
| --- | --- |
| binds | endogenous RbBP5 (from UniProt Q15291 1-538) |
| binds | endogenous DPY30 (from UniProt Q9C005 1-99) |
